According to patent publication US4743585A (Warner-Lambert Company, priority 1986, dated 1988):
Some peptides are written in HELM: one residue between dots, names in brackets for other building blocks, links after the first $.

assay: general procedure: solution-phase peptide synthesis; N,N'-dicyclohexylcarbodiimide / hydroxybenzotriazole; details: coupling step

Row | Substance | step yield
1 | 8-hydroxy-4,9-bis(2-methylpropyl)-3,6,11,14-tetraoxo-1-phenyl-15(phenylmethyl)-2,5,10,-16-tetraazaheptadecan-17-oic acid-1,1-dimethylethyl ester | 43%
2 | 10,18-dihydroxy-14-methyl-9,17-bis(2-methylpropyl)-1,4,7,12,15-pentaoxo-1- phenyl-N, 3-bis(phenylmethyl)-2,8,13,16-tetraazaeicosan-20-amine | 73%
3 | BOC-PHE[CH2 NZ]HIS(TRT)-PHSTA-LEU-NHCH2 Ph | 66.4%
4 | BOC-PHE[CH=CH]GLY-CYSTA-LEU-NHCH2 Ph | 73.3%
5 | BOC-PHE[CH=CH]GLY-PHSTA-LEU-NHCH2 Ph | 74%
6 | N-[2-hydroxy-4-[[3-methyl-1-[[(phenylmethyl)amino]carbonyl]butyl]amino]-1- (2-methylpropyl)-4-oxobutyl]-δ-[(3-methyl-1-oxobutyl)amino]benzenehexanamide | 60%
7 | PEPTIDE1{[Boc].[Phe(CH2SO)Phe].[Sta].A.[Sta].[NHBzl]}$$$$V2.0 | 89%
8 | PEPTIDE1{[Boc].[Phe(CH2SO)Phe].[Sta].L.[NHBzl]}$$$$V2.0 | 61.6%

same assay, conditions: late stage modification step

Row | Substance | step yield
9 | BOC-PHE[CH2 NH]HIS-PHSTA-LEU-NHCH2 Ph | 100%
10 | BOC-PHE[CH2 NZ]HIS-PHSTA-LEU-NHCH2 Ph | 84.38%
11 | [1-[3-[2-[[1-(cyclohexylmethyl)-2-hydroxy-4-[[3-methyl-1-[[(phenylmethyl)am ino]carbonyl]butyl]-amino]-4-oxobutyl]amino]-2-oxoethyl]oxiranyl]-2-phenylethyl]carbamic acid, 1,1-dimethylethyl ester | 63.04%
